Measured values from PubChem BioAssay AID540303 (National Center for Advancing Translational Sciences (NCATS), 2011).
Hit rate of the full screen: of about 330,000 compounds, about 1,000 (0.3%) were called active. Inconclusive results, whose numbers are uncertain, are shown with a selection of clear calls. The call rests on the fitted dose curve; in most records, active means well fitted inhibition curve with a large enough effect; inconclusive means small, poorly fitted or top-dose-only effect; inactive means no such curve, though single readings can be large or run the other way; tested in mouse RAW 264.7 cells. Potencies beside an inconclusive call are fits to weak or partial responses and may not hold up.

Experiment: qHTS for Inhibitors of Cell Surface uPA Generation; further: nearly all actives have a fitted effect of over 55% in size
Conditions: cell surface uPA generation assay; series mostly up to 38.3 µM
Summary of the method: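 Using RAW 264.7 macrophages, the screen measures whether compounds keep cellular ATP up by preventing uPA-driven LF translocation. Treatment lasted 24 h at 37 C, with a final top concentration of 38.3 uM, and luminescence was the readout.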
Potency means the concentration at half of the fitted maximal effect.

SMILES	Potency
CC(=O)C[C@H](O)CC(=O)[C@H]1OC(=O)CCCCC/C=C/Cc2ccccc21	inconclusive: 14.1 µM [inhibitor, single point]
CCC1CCCCN1S(=O)(=O)c1ccc(C(=O)N(CCCN(C)C)c2nc3cc4c(cc3s2)OCO4)cc1 (stereo not drawn)	inactive
CCNC(=O)C1CC(=O)N(Cc2ccc3c(c2)OCO3)C(=Nc2ccc(F)cc2)S1 (stereo not drawn)	inconclusive: 0.316 µM [inhibitor, full curve, poor fit]
CCCCCCCN1C(Nc2ccccc2)=NC[C@@H]1CC(C)C	inconclusive: 12.6 µM [inhibitor, single point]
O=C(Nc1ccc(F)cc1)c1cc2ccccc2o1	inconclusive: 11.2 µM [inhibitor, partial curve, poor fit]
O=C(Nc1ccc(Cl)cc1)N1CCOCC1	inactive
Cc1noc(C)c1COc1ccc(C(=O)NCCc2ccc(F)cc2)cc1	inconclusive: 7.94 µM [inhibitor, partial curve, poor fit]
Cc1ccc(NC(=O)C2CCN(C(=O)c3ccccc3C)CC2)nc1	inactive
CC(C)NC(=O)c1ccc2c3n(nc2c1)-c1ccccc1CO3	active: 0.794 µM
OC(COCC(F)(F)C(F)(F)C(F)(F)C(F)F)Cn1c2ccc(Cl)cc2c2cc(Cl)ccc21 (stereo not drawn)	inactive
Cc1cc(C)n2ncc(/C(N)=N/OC(=O)Nc3ccc(Cl)cc3)c2n1	inconclusive: 7.08 µM [inhibitor, single point]
CNC(=S)N/N=C/c1cn(CCOc2ccc(OC)cc2)c2ccccc12	inactive
O=C1C(=O)c2ccccc2C(O)=C1CCCCl	active: 11.2 µM
CN(CC(=O)Nc1ccc(Cl)cc1)C(=O)Cc1c(F)cccc1Cl	inactive
Cc1nc2ccc(NC(=O)c3ccc(Cl)c(NC(=O)c4cccs4)c3)cc2s1	inactive
COc1ccc(Cl)cc1C(=O)N(Cc1nc(-c2cccc(C)c2)no1)C(C)C	inconclusive: 12.6 µM [inhibitor, single point]
Cc1cc(NC(=O)NCc2ccccc2)c(=O)n(Cc2ccccc2F)c1	inconclusive: 0.0126 µM [inhibitor, full curve, poor fit]
CSc1ccc(C(=O)C2CCCN(C(=O)Cc3nonc3C)C2)cc1 (stereo not drawn)	inactive
CCOC(=O)c1sc2nc3c(SCCC#N)cc(C(=O)c4cc(F)ccc4O)cn3c(=O)c2c1C	inactive
Cc1cccc(NS(=O)(=O)c2cccc(C(=O)N3CCC3)c2)c1	inconclusive: 7.94 µM [inhibitor, single point]
Cc1cc(NC(=O)c2cc(CC(C)C)on2)n(-c2ccccc2)n1	inactive
O=C1N[C@H](Cc2c[nH]c3ccccc23)COC(=O)[C@H](Cc2ccc(F)cc2)C/C=C\C[C@H]1CC(=O)N(CCO)Cc1ccccc1	inconclusive: 12.6 µM [inhibitor, single point]

Some of the entries above in another layout:
CCCCCCCN1C(Nc2ccccc2)=NC[C@@H]1CC(C)C
  Potency: inconclusive: 12.6 µM [inhibitor, single point]
O=C(Nc1ccc(F)cc1)c1cc2ccccc2o1
  Potency: inconclusive: 11.2 µM [inhibitor, partial curve, poor fit]

(next part)

SMILES	Potency
COc1ccc2c(c1)c1ccc3c(c1n2C)C(=O)C=CC3=O	inconclusive: 3.16 µM [inhibitor, partial curve, poor fit]
FC(F)(F)c1cnc(-c2cnc(-c3ccncc3)nc2)c(Cl)c1	inactive
O=C(N[C@@H]1C/C=C\C[C@H](CC(=O)N(CCO)Cc2ccccc2)C(=O)N[C@@H](Cc2ccccc2)COC1=O)OCC1c2ccccc2-c2ccccc21	inconclusive: 7.94 µM [inhibitor, partial curve]
O=C(c1ccc(NC(=S)NCc2ccco2)cc1)N1CCOCC1	inconclusive: 1 µM [inhibitor, single point]
Cc1cccc(C(=S)N2CCOCC2)n1	inactive
CN(c1ccccc1)S(=O)(=O)c1cccc(NC(=O)C2=NN(c3ccccc3)C(=O)CC2)c1	inconclusive: 6.31 µM [inhibitor, partial curve, poor fit]
COc1cc(Cl)ccc1OCc1cc(C(=O)N2CCCCCCC2)no1	inactive
CC(C)(C)c1ccc(C2=CC(c3ccccc3)n3ncnc3N2)cc1 (stereo not drawn)	inconclusive: 10 µM [inhibitor, single point]
Cc1ccc(S(=O)(=O)N/N=C\c2ccc([N+](=O)[O-])o2)cc1	inconclusive: 7.08 µM [inhibitor, partial curve, poor fit]
COc1cc2c(cc1OC)C(C)N(Cc1ccc3c(c1)OCO3)CC2 (stereo not drawn)	inconclusive: 7.94 µM [inhibitor, single point]
C/C(=N\NC(=O)c1ccn(C)n1)c1cccc(NC(=O)c2ccc(C)s2)c1	inactive
CCOC(=O)C1CN(S(C)(=O)=O)c2cc(CC(=O)OC)ccc2O1 (stereo not drawn)	inactive
Cc1ccc(-c2nc3ncccc3o2)cc1N	inconclusive: 14.1 µM [inhibitor, single point]
COc1ccc(NC(=O)c2nc(C)c(C3(C)CC(c4ccccc4)=NO3)s2)cc1 (stereo not drawn)	inconclusive: 1.12 µM [inhibitor, full curve, poor fit]
CC#CCN1c2ccccc2[C@]23C[C@@H](C(=O)OC)N(C(=O)c4cc(C)oc4C)C2=NC(C(=O)OC)=C(C(=O)OC)[C@H]13	inconclusive: 4.47 µM [inhibitor, partial curve, poor fit]
COCCN=C1N[C@@H](c2cccc(C(F)(F)F)c2)C(C(=O)OC)=C(C)N1Cc1ccccc1	inactive
COc1ccc(C#Cc2c(-c3ccccc3)n(C)c3ccccc23)cc1	inconclusive: 2.82 µM [inhibitor, partial curve, poor fit]
COCCn1c(=NC(=O)CSC(C)=O)sc2cc(OC)ccc21	inconclusive: 8.91 µM [inhibitor, single point]
N#Cc1ccc(/C=C/C(=O)c2ccc3c(c2)OCO3)cc1	inconclusive: 11.2 µM [inhibitor, single point]
C[C@]12c3[nH]c4ccccc4c3CCN1C(=O)C(CC(=O)NCc1cccc(C(F)(F)F)c1)C[C@@H]2C(=O)N1CCCCC1 (stereo partly drawn)	inconclusive: 11.2 µM [inhibitor, single point]
O=c1c2c(-c3ccc(Cl)cc3)csc2ncn1/N=C/c1cccc([N+](=O)[O-])c1O	inconclusive: 7.94 µM [inhibitor, partial curve, poor fit]
